The list shows a part of the results. Measured potencies and affinities stand elsewhere.
Test system: Acinetobacter baumannii
Settings: Concentration 32 ug.mL-1; ASSAY_TEST Inhibition of Bacterial Growth; detection method Absorption (OD600); MEDIA CAMHB; plate type 384well; NBS; CORNING #3640; time 18 hr

Question: For `CN(C)C(=O)c1ncc([N+](=O)[O-])n1C`, which Inhibition is on record?
Answer: 7.61%

Question: For `Cc1ccc(CCNC(=O)c2ncc([N+](=O)[O-])n2C)cc1`, which Inhibition is on record?
Answer: 8.37%

Question: With `Cn1c([N+](=O)[O-])cnc1C(=O)NC1CC1` as the compound, how does the Inhibition read?
Answer: 4.49%

Question: `CC(NC(=O)c1ncc([N+](=O)[O-])n1C)c1ccc(F)cc1` (stereo not given) was tested. Which Inhibition did it give?
Answer: 2.85%

Question: `Cn1c([N+](=O)[O-])cnc1C(=O)NCc1ccccn1.O=C(O)C(F)(F)F` was tested. Which Inhibition did it give?
Answer: 2.43%

Question: Which Inhibition does the source give for `Cn1c([N+](=O)[O-])cnc1C(=O)NCc1ccc(F)cc1` here?
Answer: 8.21%

Question: How did the Inhibition turn out when `Cn1c([N+](=O)[O-])cnc1C(=O)NCc1cccc(OC(F)(F)F)c1` was run?
Answer: 2.6%

Question: `Cn1c([N+](=O)[O-])cnc1C(=O)N1CCOCC1` was tested. Which Inhibition did it give?
Answer: 3.87%

Question: For `Cn1c([N+](=O)[O-])cnc1C(=O)NCc1ccc(OC(F)(F)F)cc1`, which Inhibition is on record?
Answer: -2.47%

Question: How did the Inhibition turn out when `Cn1c([N+](=O)[O-])cnc1C(=O)N1CCCC1` was run?
Answer: 3.46%

Source: ChEMBL document CHEMBL4513134, “CO-ADD screening of University of Queensland (Australia) compounds” (2021)
